Experimental findings from PubChem BioAssay AID1347423 (Functional Genomics Laboratory (NCATS/FGL), 2020) are described below.

In all, about 52,000 sequences went through this assay and about 210 (0.4%) were called active.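 The calls were made as follows: active = gene whose silencing raises cell survival under the drug, median off-target-corrected z-score across its silencing RNAs 2 or more; inactive = the rest.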 This is one part of the list.

The nature of this assay: Resistance to Poly (ADP-Ribose) Polymerase inhibitor: Gene Identification via Genome-wide siRNA Screen. To be noted: mouse BRCA2 R2336H ES cells, olaparib, CellTiter-Glo viability; hits give high values. In short, it runs like this:
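Mouse BRCA2 R2336H ES cells were reverse-transfected with siRNA (20 nM final), treated at 48 h with 500 nM olaparib, and read by CellTiter-Glo after 72 h. Scores: MAD-based z per siRNA, median per gene, seed off-target correction.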
For GGUAUCAAUAAAGUUGUUGTT against Stk11ip, the z-score was inactive: 0.0177.

As for GGUGAAGCAGAAAGAAAACTT against Pank4, the z-score was inactive: -0.176.

For GGAACCAGAAAGGACAGUCTT against H2-Eb1, the z-score was inactive: -1.15.

Regarding GGACCAGCUGAUCUCAGUATT against Olfr1403, the z-score is inactive: -1.26.

As to CCACGAAUUACCUUAAAGUTT against Phf16, the z-score is inactive: 2.06.

As to “GGAAGUUCAGAAAAAGGCATT against 1200006F02Rik”, the z-score is inactive: 0.592.

For the sequence “GCGUGGAAAAGUGUUACCATT against 4930418P06Rik”, the z-score was inactive: -1.33.

With GGAAAAGUACACAAAGACCTT against Titf1, the z-score was inactive: 1.08.

Regarding CCAGAAUCGAAAUAACCAGTT against Rpgrip1, the z-score was inactive: -1.52.

On to GGUACAAGGUGAAGACUUCTT against Reg3a, for which the z-score was inactive: -1.98.

As to “CCAAACAGAGCCAUUCUAATT against C630028N24Rik”, the z-score is inactive: -0.283.

Consider GGGCAUUGAGACUUUGCUGTT against Sit, for which the z-score was inactive: -0.0791.

In the case of GGACAAGGUAUUUUACGUCTT against Mars, the z-score is inactive: 0.873.

As to GCAUCUCCUGCCAAAGCAGTT against Ms4a2, the z-score was inactive: 0.75.

On to GGAUGUUGAAGAUGAGUCATT against BC023882, for which the z-score is inactive: -0.192.

On to “GCGUGACCAUUAUUUCCUGTT against 7420416P09Rik”, for which the z-score was inactive: 0.406.

On to CCUACUCAAGAAGCUCAGUTT against Hpse, for which the z-score was inactive: -0.357.

“CCUGUACUCUACCUCACACTT against 8430427H17Rik”: the z-score is inactive: -1.24.

On to GGACAAGAAUUGGAACAAATT against Zfp84, for which the z-score is inactive: 0.628.

For GGCCAGAGGACUAUGUUAUTT against C1sb, the z-score was inactive: -0.42.

Regarding CCUAAACAGCCUUAUCGAUTT against Clca1, the z-score is inactive: 0.859.

For the sequence GGAGGUUGAAGUGCAGGAATT against Mab21l1, the z-score was inactive: -1.24.

In the case of CCCUUGUCUAAAAUAUACATT against BC066028, the z-score is inactive: -0.51.

As to GGACGCACACGUACAUCGUTT against Rkhd1, the z-score is inactive: 1.35.

For GGGCAAGCCACUCAUGUUGTT against Me2, the z-score was inactive: 0.642.

As to GGCCAAUAGGACAUAUCUATT against Qprt, the z-score is inactive: 0.479.

As for GGAGACCACAGACCUCAAATT against Fcgrt, the z-score is inactive: -0.767.

In the case of “CCAUCCCGUUCACUAGAGATT against 1110056A04Rik”, the z-score was inactive: 0.0509.

Take GCUUUUGUGUCAUGUUGCATT against Ncdn: the z-score is inactive: 0.0346.

Take CCAUUUUAACCAAUGGUGUTT against Olfr572: the z-score was inactive: 0.23.

For “GGCAAGUCUCAAAUUAUUUTT against D930030D11Rik”, the z-score was inactive: 0.00409.

In the case of “GGGUCCUAAACAGACCAGATT against 1600014E20Rik”, the z-score is inactive: 0.215.

Turning to “GGAUAUUUCCAGACAAUAUTT against 5832418A03Rik”, the z-score is inactive: 0.257.

As to “CGCCACUGCUUUGAUUACUTT against 6330578E17Rik”, the z-score is inactive: 0.781.

For GGACAAGAAGAAGUCCAUUTT against Isl2, the z-score is inactive: -0.147.

For the sequence GGCUAACAACAUCUUCUCCTT against Tlr7, the z-score is inactive: -2.4.

As for GGAUGGUUCUGAGGUGAAATT against Il17e, the z-score is inactive: -2.45.

As for GCGCAUGGUGCAGAACCUATT against Krt1-12, the z-score was inactive: -0.185.

For GGUUUGGCAAACAUUUCAUTT against Akr1c20, the z-score was inactive: 0.514.

With GGCAUAGGUAUAUUUGAGUTT against Lep, the z-score was inactive: 0.747.

For the sequence CCUGAUUAAUGUGACUGGGTT against Dbr1, the z-score was inactive: 0.803.

Turning to GGCGAUGGAAAGACUGCACTT against Hus1b, the z-score was inactive: -0.485.

As for GGUCAAAGGGAAACAAGUUTT against Creb3l4, the z-score is inactive: -2.55.

For the sequence GGCUUGGAUUUUGAAAUACTT against P140, the z-score was inactive: 0.368.

On to GGUGUUGAGACCAAUUAGCTT against Dqx1, for which the z-score was inactive: 1.07.

For GGAUCUGCAUUUCACUAUUTT against Pik4ca, the z-score is inactive: -0.514.

For the sequence GCAUCAUGUCAUUCUUUACTT against Fstl5, the z-score was inactive: 0.101.

In the case of GGUGUACUUUAUCUCACGATT against Olfr6, the z-score is inactive: 0.675.

“GCACCAUUUUAAGAUCUGCTT against 1110020C13Rik”: the z-score is inactive: 0.381.

As to CGAAGCAAGAGCACUGCCUTT against Atp6v1h, the z-score was inactive: -0.744.

On to GCGAACGGACAUCUCCUUCTT against Akr1b8, for which the z-score is inactive: 0.937.

As to GGCUUUUUUGCUAUCCUAUTT against Hoxc5, the z-score was inactive: 0.124.

As to “GGCUAGUGGAACACUUUAGTT against 2210010B09Rik”, the z-score is inactive: -0.759.

As to “GGCAAGGAAGGAGAUUGCUTT against 2400003C14Rik”, the z-score is inactive: -0.376.

In the case of GGUUUGUUUGUUUUUUGGUTT against Jub, the z-score is inactive: 0.404.

In the case of GCCAGUACCCAUAUGACAGTT against Irx4, the z-score was inactive: 0.46.

Regarding CCGUUCCCUAAAUGAAUAUTT against Smc6l1, the z-score is inactive: -0.308.

Take GCAAGAAGUGGAGUAUUUUTT against AU016977: the z-score was inactive: 0.0217.

GCUGUUAAACGAAAUGUACTT against Esx1: the z-score is inactive: 0.764.

On to GGUGGUUAUGAUCUAUGAUTT against Dazap1, for which the z-score was inactive: -0.659.

For “GCAUGGACAAAUGUCCCUGTT against 1110055J05Rik”, the z-score is inactive: -0.0223.

On to GGACUUCUACCACUGGAGGTT against Alox12b, for which the z-score was inactive: 0.686.

Turning to GCCAGCUAAAGAAGUCUAUTT against Gpr17, the z-score is inactive: -0.363.

For the sequence GGCCAUUGUGACAAACAGATT against Ltf, the z-score is inactive: 0.509.

As to “CCUAUAGCCUAUGAGAGAGTT against 4833418A01Rik”, the z-score was inactive: 0.0749.

As to GGCAAACAAAACAUUGUUGTT against Pla2g1br, the z-score was inactive: 1.91.

As to “CCGAUUAGAAAAGACCAAATT against 2610528H13Rik”, the z-score was inactive: 0.624.

Turning to CGACCCUAAUCUGGUGAACTT against Mfap5, the z-score was inactive: -0.0603.

“GGCCAUGUGUAAUUGAAGATT against 9230112E08Rik”: the z-score is inactive: 1.59.

As for GGAGUAUCGGUGACUACGGTT against Chst9, the z-score is inactive: 0.0473.

Take GGUGAAGCAGAUCAACAAGTT against Stmn2: the z-score is inactive: 2.28.

“GGUGGUUUACCAAACGGUGTT against 2210023G05Rik”: the z-score was inactive: -0.421.

Consider GGCCGAGUACAAACGUGGATT against AU019532, for which the z-score is inactive: 0.561.

With GGAUUUUCUACUCUAAAGATT against Tnfrsf19, the z-score is inactive: -0.42.

Consider GGAAUUUGGUUAAAUGGAATT against Dio2, for which the z-score is inactive: 0.00953.

On to “GGAACUCUGUGGGUGAGAATT against 5830472H07Rik”, for which the z-score was inactive: -0.148.

GGAGAUGCAGAAAAUGAAUTT against Prim1: the z-score was inactive: -1.42.

For “GGCUCAUUUUGAAGCUAAGTT against D030060M11Rik”, the z-score was inactive: -1.67.

Regarding GCACAUUCAUAGGAGUACCTT against V1rf3, the z-score was inactive: 1.11.

Regarding GGCCCAAAGUUUAUCCAAGTT against Rasl12, the z-score is inactive: -0.546.

For GGGCACACCCAUGAAGACATT against Tcf1, the z-score is inactive: 0.312.

GGAACUUUGCCAUCUCUCCTT against Insrr: the z-score was inactive: 0.314.

With GGAACAGCGGCUAACUUAUTT against Accn4, the z-score was inactive: -1.42.

GCCUCUAGUACAGACAACCTT against Rnf121: the z-score is inactive: 0.961.

Take GGAAGUUUGCUAGAGUUAATT against Taf13: the z-score was inactive: 2.18.

Consider GGACAAUCCGUUCUUUCUGTT against Tgfb3, for which the z-score was inactive: 0.0777.

GCACAGAGUUUUACCUUCUTT against Olfr811: the z-score was inactive: -1.05.

For the sequence GGAAGAUAAAUGUCACAAATT against AA792892, the z-score was inactive: 0.0744.

For GACCAUAGAGAUUAUCGUGTT against Retnla, the z-score is inactive: 0.504.

Turning to GGAGUGUCUCAGUUCAGUGTT against Ppp3r1, the z-score was inactive: -1.6.

For the sequence “GGAUGCACUGAGGAACUCATT against 9430023L20Rik”, the z-score is inactive: -0.861.

CCCUCCUAUUAGCGCAUUUTT against Osbpl2: the z-score was inactive: -2.03.

Take GGAGACCUAAAAUGUCUUUTT against Klrb1d: the z-score was inactive: 0.522.

For the sequence GCAAACUGUCCUAUCUUGGTT against Cacna1d, the z-score is inactive: 0.557.

For the sequence GGUCAGAGGCCAACAUGGUTT against Oas1e, the z-score is inactive: -1.44.

Consider GGUUUUGCAUCAACAGUGUTT against Msrb, for which the z-score was inactive: -0.548.

In the case of “GCUCUAUUUGACCACCUCATT against 2610020H15Rik”, the z-score is inactive: -0.378.

Regarding GGAAGUCAUCAAAGGCUUUTT against Fkbp1b, the z-score is inactive: -1.22.

On to GGAGGUGAAGCUUCGAAUGTT against Slc25a10, for which the z-score is inactive: -2.94.

For the sequence GGAGCUGAGGAAAAAGAUUTT against Uhrf1, the z-score is inactive: -2.64.

For the sequence GGAUAAGAAGUCCAAGAACTT against Pknox2, the z-score is inactive: 0.469.

“GGAAUAGACUUGGAAUCUATT against B930008I02Rik”: the z-score was inactive: 0.384.

As for GGUCAUUAGGAACUACACUTT against Vav3, the z-score was inactive: 0.149.

GCUCAAAGUUUGAACUGGCTT against A2lp: the z-score is inactive: 1.13.
